According to paper PMC5853860:
These are yes or no findings as the source states them, for the method shown. In cells and extracts the contact can be indirect. Here binding means that the protein was enriched with, or labelled near, the bait; the list need not be complete.

Biological target: OsCV-GFP (CHLOROPLAST VESICULATION of rice fused to GFP) (Oryza sativa)
Experiment: affinity purification with mass spectrometry; anti-GFP magnetic beads (µMACS GFP Isolation Kit) incubated with shoot lysate of 1-week-old rice seedlings at 4 °C for 4 h; seedlings cultured with 20 µM β-estradiol or DMSO for 24 h; LC-MS/MS

- binding: binds
B1: chloroplastic (stromal) glutamine synthetase 2 (enzyme, UniProt P14655 49-428)
chain: VSTETTGVVTRMEQLLNMDTTPFTDKIIAEYIWVGGTGIDLRSKSRTISKPVEDPSELPKWNYDGSSTGQAPGEDSEVILYPQAIFKDPFRGGNNILVMCDTYTPAGEPIPTNKRNRAAQVFSDPKVVSQVPWFGIEQEYTLLQRDVNWPLGWPVGGYPGPQGPYYCAVGSDKSFGRDISDAHYKACLYAGINISGTNGEVMPGQWEYQVGPSVGIEAGDHIWISRYILERITEQAGVVLTLDPKPIQGDWNGAGCHTNYSTKSMREDGGFEVIKKAILNLSLRHDLHISAYGEGNERRLTGLHETASIDNFSWGVANRGCSIRVGRDTEAKGKGYLEDRRPASNMDPYVVTALLAETTILWEPTLEAEVLAAKKLALKV
